Inconclusive results, whose numbers are uncertain, are shown with a selection of clear calls. A potency beside an inconclusive call is a rough fit, not a confirmed value. Where a structure was tested more than once in an assay, its records may differ in their call. The source made the active and inactive calls. How the source made its calls: active means hit-call score of the fitted dose curve at least 0.9, where 1 is the maximum; inconclusive means response in the unintended direction; inactive means score below 0.9.
test: ACEA_AR_agonist_AUC_viability: ACEA Biosciences xCELLigence Real-Time Cell Analysis on Androgen Receptor Agonism for Viability (AID 2283775);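 on AC50: viability read 80 hours after compound addition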
Procedure, shortened: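 Viability endpoint from xCELLigence impedance in 22Rv1 prostate cells at 80 h. Eight-point series, 100 uM maximum final.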

Row | Structure (SMILES) | AC50 | outcome
1 | C[C@]12CC[C@@H]3c4ccc(O)cc4CC[C@H]3[C@@H]1CC[C@@H]2O | inconclusive: 0.00077 µM | 
2 | CC(C)(C)c1ccc(-c2ccc(C(C)(C)C)cc2)cc1 |  | inactive
3 | Cc1cccc([N+](=O)[O-])c1C |  | inactive
4 | CCCCOCCOCCOCCOCCO | inconclusive: 0.154 µM | 
5 | O=C(O)c1cccc(Oc2ccccc2)c1 | inconclusive: 0.106 µM | 
6 | Cc1nn(C)c(Oc2ccccc2)c1C=NOCc1ccc(C(=O)OC(C)(C)C)cc1 | active: 13 µM | 
7 | C=C1C2CCC(C2)C1(C)C (configuration not stated) |  | inactive
8 | O=C(O)c1ccc2c(c1)C(=O)OC2=O | inconclusive: 0.0051 µM | 
9 | Oc1ccc(O)cc1 | inconclusive: 20.8 µM | 
10 | CCN(CC)c1ccc2c(-c3ccccc3C(=O)O)c3ccc(=[N+](CC)CC)cc-3oc2c1 | active: 9.44 µM | 
11 | CC(C)(C)c1cc(CCC(=O)OCC(COC(=O)CCc2cc(C(C)(C)C)c(O)c(C(C)(C)C)c2)(COC(=O)CCc2cc(C(C)(C)C)c(O)c(C(C)(C)C)c2)COC(=O)CCc2cc(C(C)(C)C)c(O)c(C(C)(C)C)c2)cc(C(C)(C)C)c1O | inconclusive: 0.071 µM | 
12 | O=C(c1ccc(OCCN2CCCCC2)cc1)c1c(-c2ccc(O)cc2)sc2cc(O)ccc12 | active: 50 µM | 
13 | O=c1cc(-c2ccc(O)cc2)oc2cc(O)cc(O)c12 | active: 12.7 µM | 
14 | Nc1ccc(Nc2ccccc2)cc1 | active: 93 µM | 
15 | Oc1ccc2ccccc2c1N=Nc1ccccc1 | inconclusive: 3.52 µM | 
16 | CN(C)c1ccc2nc3ccc(=[N+](C)C)cc-3sc2c1 | active: 20.4 µM | 
17 | CCCCCCOCCO | inconclusive: 50 µM | 
18 | CCCOC(=O)c1ccc(O)cc1 |  | inactive
19 | Cc1cn([C@H]2C[C@H](N=[N+]=[N-])[C@@H](CO)O2)c(=O)[nH]c1=O | inconclusive: 0.0119 µM | 

3 of these compounds, set out differently.
Row	Structure (SMILES)	AC50	outcome
2	CC(C)(C)c1ccc(-c2ccc(C(C)(C)C)cc2)cc1		inactive
5	O=C(O)c1cccc(Oc2ccccc2)c1	inconclusive: 0.106 µM	
7	C=C1C2CCC(C2)C1(C)C (configuration not stated)		inactive

The list goes on:

Row | Structure (SMILES) | AC50 | outcome
20 | N#C[C@@H]1CC(F)(F)CN1C(=O)CNC1CC2CCC(C1)N2c1ncccn1 (some centres not stated) | inconclusive: 50 µM | 
21 | CCCCCCCCCC=CCC1CC(=O)OC1=O (configuration not stated) | inconclusive: 16.6 µM | 
22 | CSC(=O)c1cccc2nnsc12 | inconclusive: 0.721 µM | 
23 | Oc1cccc(O)c1 | inconclusive: 0.078 µM | 
24 | CCN(Cc1cccc(S(=O)(=O)O)c1)c1ccc(C(=C2C=CC(=[N+](CC)Cc3cccc(S(=O)(=O)O)c3)C=C2)c2ccccc2S(=O)(=O)[O-])cc1 | inconclusive: 4.94 µM | 
25 | CC[C@H](C)[C@@H](C(=O)O)n1sc2ccccc2c1=O | inconclusive: 50 µM | 
26 | CC(C)c1cccc(O)c1 | inconclusive: 16.6 µM | 
27 | CCOc1ccc2c(c1)C(C)=CC(C)(C)N2 | active: 79.8 µM | 
28 | O=c1c(O)c(-c2ccc(O)cc2O)oc2cc(O)cc(O)c12 | inconclusive: 0.0826 µM | 
29 | CN(C)C(=O)Nc1ccc(Cl)c(Cl)c1 |  | inactive
30 | CCCCCCC(CCCCCCCCCCC(=O)OCC(COC(C)=O)OC(C)=O)OC(C)=O (configuration not stated) |  | inactive
31 | c1c[nH]cn1 |  | inactive
32 | C=CCOC(=O)c1ccccc1C(=O)OCC=C | inconclusive: 50 µM | 
33 | CC(C)=CCCC(C)=CC=O |  | inactive
34 | O=C(OCC1CCC2OC2C1)C1CCC2OC2C1 (configuration not stated) | active: 9.05 µM | 
35 | CCOC(OCC)OCC |  | inactive
36 | c1ccc2ccccc2c1 | inconclusive: 50 µM | 
37 | COCC(C)O (configuration not stated) |  | inactive

From PubChem BioAssay (EPA / NIEHS)
